Test results reported in patent publication US20170316147A1, “METHODS AND SYSTEMS FOR IDENTIFYING LIGAND-PROTEIN BINDING SITES” (King Abdullah University of Science and Technology, priority 2014, published 2017).
Results are given in words; binding and its absence hold for the method and conditions named. Some binding calls cover weakened binding; strength is not graded here. Blank lines part the entries; values can stand above or below the binder they belong to.

By UniProt entry, the sequences of proteins in these tests, tags left out. Where a name states a change or a piece, a line headed by the entry shows the natural chain unless it says otherwise. Residues count along the entry.
UniProt P37231, residues 224-505: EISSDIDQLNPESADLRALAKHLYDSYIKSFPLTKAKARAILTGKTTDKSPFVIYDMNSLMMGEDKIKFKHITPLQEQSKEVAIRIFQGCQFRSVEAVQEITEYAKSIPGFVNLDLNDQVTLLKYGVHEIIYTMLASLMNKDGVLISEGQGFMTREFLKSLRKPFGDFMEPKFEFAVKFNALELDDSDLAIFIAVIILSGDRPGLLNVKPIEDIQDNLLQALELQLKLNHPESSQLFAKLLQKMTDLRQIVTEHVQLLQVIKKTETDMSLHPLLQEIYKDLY
UniProt P10415: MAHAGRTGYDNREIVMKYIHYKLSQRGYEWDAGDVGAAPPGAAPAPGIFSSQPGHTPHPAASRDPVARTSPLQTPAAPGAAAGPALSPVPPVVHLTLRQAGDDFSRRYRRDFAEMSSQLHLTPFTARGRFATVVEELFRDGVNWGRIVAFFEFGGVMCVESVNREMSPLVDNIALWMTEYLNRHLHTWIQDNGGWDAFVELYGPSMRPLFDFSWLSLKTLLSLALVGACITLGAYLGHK
UniProt Q64373: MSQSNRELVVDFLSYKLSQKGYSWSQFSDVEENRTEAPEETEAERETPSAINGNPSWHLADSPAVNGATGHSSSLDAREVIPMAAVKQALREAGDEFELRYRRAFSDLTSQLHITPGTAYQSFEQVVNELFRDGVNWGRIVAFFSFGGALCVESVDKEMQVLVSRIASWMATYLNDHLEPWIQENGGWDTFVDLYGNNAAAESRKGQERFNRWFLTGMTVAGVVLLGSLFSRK

Legend:
[1] = target: ligand binding domain (LBD) of human PPARγ (amino acids Glu196-Tyr477) (human) (UniProt P37231); assay: fluorescence anisotropy with fluorescein-labeled peptide
[2] = target: T1, chimeric human Bcl-2 (with the internal loop 51-91 removed and residues 35-50 replaced by residues 33-48 of mouse Bcl-XL) (human; mouse) (UniProt P10415+Q64373); assay: DSLS thermal aggregation
[3] = target: T1, chimeric human Bcl-2 (with the internal loop 51-91 removed and residues 35-50 replaced by residues 33-48 of mouse Bcl-XL) (human; mouse); assay: fluorescence polarization, 20 nM Bax-BH3 with 400 nM Bcl-2, titrated with CoA
[4] = target: T1, chimeric human Bcl-2 (with the internal loop 51-91 removed and residues 35-50 replaced by residues 33-48 of mouse Bcl-XL) (human; mouse); assay: intrinsic tryptophan fluorescence quenching of Bcl-2

binding [1]: binds
B1: FITC-…, fluorescence-labeled peptide corresponding to NCoR-RID2 (peptide)
peptide: DPASNLGLEDIIRKALMGSFD
modifications: N-terminal FITC

binding [2]: binds
binding [3]: binds
binding [4]: binds
B2: fluorescence-labeled peptide … corresponding to Bax-BH3 (peptide)
peptide: QDASTKKLSECLRRIGDELDSNMELQRMIAD
modifications: fluorescence-labeled (fluorescein); position of the label not stated
